PubChem BioAssay AID602196 | INSERM – 2012

Purpose: 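Knock-downs that protect lung cancer cells from cisplatin or sensitise them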
System: human A549 lung cancer cells
Knock-down reagent: siRNA pair against human genes
Timing: 48 h transfection before cisplatin; time from cisplatin to read-out not stated
Conditions: cisplatin at a dose killing half of control-siRNA cells; exact dose and duration not given
Measurement: 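Cisplatin cell death as a shift from the 50% death seen with control siRNA; siRNAs toxic or growth-blocking alone scored 0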
Direction: two-siRNA summed score (-2 to +2): higher = both siRNAs protect from cisplatin killing; -2 means both sensitise; mean protection from cisplatin (shift in death): higher = protection from cisplatin killing
Rule for the call: 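Each siRNA scores 0 if harmful alone by LDH or WST-1, otherwise +1 if it reduces and -1 if it increases cisplatin killing; a gene is active when both siRNAs agree (sum +2 or -2)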
Calls: active = both siRNAs shift cisplatin killing the same way; inactive = no consistent shift, or siRNA harmful alone
Here is one part, drawn at random, of about 23,000 reagents. Of all reagents, 455 (2%) are marked active. 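Active includes both protection and sensitisation; some change values fall well beyond the stated -50 to +50 range.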 Further read-outs or replicates are left out here. Not given: the amount of reagent.

With LOC441046, what was measured?
two-siRNA summed score (-2 to +2): 0; mean protection from cisplatin (shift in death) (%): 5.8; Outcome: inactive

What did the screen give for ANKRD13C?
two-siRNA summed score (-2 to +2): 0; mean protection from cisplatin (shift in death) (%): 0.1; Outcome: inactive

For DUT, what was measured?
two-siRNA summed score (-2 to +2): 0; mean protection from cisplatin (shift in death) (%): 1.1; Outcome: inactive

With DZANK1, what does the deposit list?
two-siRNA summed score (-2 to +2): 0; mean protection from cisplatin (shift in death) (%): -2.2; Outcome: inactive

What did the screen give for COLGALT1?
two-siRNA summed score (-2 to +2): 0; mean protection from cisplatin (shift in death) (%): 4.3; Outcome: inactive

For C5orf34, what was measured?
two-siRNA summed score (-2 to +2): 0; mean protection from cisplatin (shift in death) (%): 6.7; Outcome: inactive

How did the screen score LOC133609?
two-siRNA summed score (-2 to +2): 0; mean protection from cisplatin (shift in death) (%): 5.9; Outcome: inactive

With GFRA4, what was measured?
two-siRNA summed score (-2 to +2): 0; mean protection from cisplatin (shift in death) (%): -10.1; Outcome: inactive

For MGC21874, how do the results read?
two-siRNA summed score (-2 to +2): 0; mean protection from cisplatin (shift in death) (%): 8.6; Outcome: inactive

With TM4SF1, what was measured?
two-siRNA summed score (-2 to +2): 0; mean protection from cisplatin (shift in death) (%): -2.4; Outcome: inactive

Which result is listed for LOC400093?
two-siRNA summed score (-2 to +2): 0; mean protection from cisplatin (shift in death) (%): -9.5; Outcome: inactive

3 of these entries in another layout.
| gene symbol | two-siRNA summed score (-2 to +2) | mean protection from cisplatin (shift in death) (%) | Outcome |
| --- | --- | --- | --- |
| GFRA4 | 0 | -10.1 | inactive |
| MGC21874 | 0 | 8.6 | inactive |
| TM4SF1 | 0 | -2.4 | inactive |

The listing continues.
What did the screen give for LOC388476?
two-siRNA summed score (-2 to +2): 0; mean protection from cisplatin (shift in death) (%): 0.5; Outcome: inactive

With NRCAM, what was measured?
two-siRNA summed score (-2 to +2): 0; mean protection from cisplatin (shift in death) (%): -11.2; Outcome: inactive

What is on record for SLC9A4?
two-siRNA summed score (-2 to +2): 2; mean protection from cisplatin (shift in death) (%): 19.7; Outcome: active

How did the screen score LOC442442?
two-siRNA summed score (-2 to +2): 0; mean protection from cisplatin (shift in death) (%): 10.8; Outcome: inactive

With NUTF2P4, what was measured?
two-siRNA summed score (-2 to +2): 0; mean protection from cisplatin (shift in death) (%): 2.8; Outcome: inactive

What did the screen give for GJC2?
two-siRNA summed score (-2 to +2): 1; mean protection from cisplatin (shift in death) (%): 7.2; Outcome: inactive

For CCDC112, how do the results read?
two-siRNA summed score (-2 to +2): 0; mean protection from cisplatin (shift in death) (%): 0.5; Outcome: inactive

What is on record for SLC2A13?
two-siRNA summed score (-2 to +2): 0; mean protection from cisplatin (shift in death) (%): -0.1; Outcome: inactive

With IBSP, how do the results read?
two-siRNA summed score (-2 to +2): 0; mean protection from cisplatin (shift in death) (%): 4.1; Outcome: inactive

For TMEM176A, how do the results read?
two-siRNA summed score (-2 to +2): -1; mean protection from cisplatin (shift in death) (%): -8.7; Outcome: inactive

How did the screen score LOC401548?
two-siRNA summed score (-2 to +2): 0; mean protection from cisplatin (shift in death) (%): 9.4; Outcome: inactive

What is on record for PNPLA4?
two-siRNA summed score (-2 to +2): 0; mean protection from cisplatin (shift in death) (%): 6.3; Outcome: inactive

For OR10J5, what was measured?
two-siRNA summed score (-2 to +2): 1; mean protection from cisplatin (shift in death) (%): 15.1; Outcome: inactive

How did the screen score SYCP1?
two-siRNA summed score (-2 to +2): 0; mean protection from cisplatin (shift in death) (%): 7.3; Outcome: inactive

With CDC34, what does the deposit list?
two-siRNA summed score (-2 to +2): 0; mean protection from cisplatin (shift in death) (%): 10.3; Outcome: inactive

How did the screen score FAM41C?
two-siRNA summed score (-2 to +2): 0; mean protection from cisplatin (shift in death) (%): 11.1; Outcome: inactive

Which result is listed for CLEC2A?
two-siRNA summed score (-2 to +2): 1; mean protection from cisplatin (shift in death) (%): 9.5; Outcome: inactive

Which result is listed for LOC116166?
two-siRNA summed score (-2 to +2): 0; mean protection from cisplatin (shift in death) (%): 16.9; Outcome: inactive

For CLDN16, what was measured?
two-siRNA summed score (-2 to +2): 0; mean protection from cisplatin (shift in death) (%): -3; Outcome: inactive

How did the screen score MYRFL?
two-siRNA summed score (-2 to +2): -1; mean protection from cisplatin (shift in death) (%): -11.2; Outcome: inactive
